Laboratory results reported in patent US7371766B2, “Curcumin analogs with anti-tumor and anti-angiogenic properties” (Emory University, priority 1999, dated 2008).
Some entries share one result that the patent states for a list of compounds.

Legend:
[1] = tested on: HUVECS; assay: Emory Laboratory Cell Screen, Neutral Red, HUVECS; format: cell-based, human
Experimental: Human tumor and endothelial cell lines were treated for 72 hours with compounds at a minimum of four concentrations between 0.1 μM-40 μM. Neutral Red assay was used to calculate cell viability.

[2] = tested on: SVR cells; assay: Neutral Red Assay, transformed murine endothelial cells (SVR); format: cell-based
[3] = tested on: Vascular Endothelial Growth Factor (VEGF) production by human melanoma cell line RPMI-7951; assay: VEGF ELISA, RPMI-7951; conditions: Series II analogs

Structure (SMILES)	Cytotoxicity to normal VECs, in words [1]	Cytotoxicity to malignant VECs, in words [2]	VEGF production and cell death, in words [3]
C(=C\c1ccccc1)/S/C=C/c1ccccc1 [EF15]	not cytotoxic	not cytotoxic	selectively blocked VEGF production without causing cell death
COc1ccc(CCC(O)CCc2ccc(OC)c(OC)c2)cc1OC [MD279L, 1,5-Bis(3,4-dimethoxyphenyl)penta-3-ol]	not cytotoxic	not cytotoxic	selectively blocked VEGF production without causing cell death
COc1ccc(CCC(=O)CCc2ccc(OC)c(OC)c2)cc1OC [MD279U, 1,5-Bis(3,4-dimethoxyphenyl)penta-3-one]	not cytotoxic	not cytotoxic	selectively blocked VEGF production without causing cell death
